Our source for the binding values is publication PMC9903137.

Protein sequences, listed by entry. Tags and fused reporters are not part of them. Residues count along the entry.
UniProt O15118, residues 371-621: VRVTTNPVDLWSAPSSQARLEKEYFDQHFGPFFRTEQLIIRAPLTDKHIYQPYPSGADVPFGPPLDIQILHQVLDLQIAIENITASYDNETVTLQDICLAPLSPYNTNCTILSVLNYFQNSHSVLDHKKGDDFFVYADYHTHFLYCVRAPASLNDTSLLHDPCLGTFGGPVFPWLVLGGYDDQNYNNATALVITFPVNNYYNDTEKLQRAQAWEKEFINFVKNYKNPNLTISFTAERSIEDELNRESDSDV

The experiment has as its target Human Niemann–Pick C1 protein luminal domain C (NPC1-C), nonglycosylated, residues 371–621 (human) (UniProt O15118). The experiment can be described thus: SEC; Superdex 200 16/60; SEC buffer 20 mM MES pH 5.5, 100 mM NaCl; refolded His8-tagged NPC1-C alone; both purified.

Results are given in words; binding and its absence hold for the method and conditions named.

Regarding “Human Niemann–Pick C1 protein luminal domain C (NPC1-C), nonglycosylated, residues 371–621 (from UniProt O15118 371-621) (domain or fragment)”, the binding result is listed as “no binding”.
